Test results from ChEMBL document CHEMBL5321243, “The Cytotoxic Cardiac Glycoside (-)-Cryptanoside A from the Stems of Cryptolepis dubia and Its Molecular Targets” (J Nat Prod, 2023).

Tested on: MDA-MB-231
Assay: Cytotoxicity against human MDA-MB-231 cells incubated for 72 hrs by Cell titer blue assay
Format: functional, cell-based
Conditions: MDA-MB-231, 72 h
Outline: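 Cells grown in RPMI 1640 with 10% FBS, penicillin and streptomycin at 37 °C, 5% CO₂; 5,000 log-phase cells per well seeded, left overnight, then exposed 72 h to serial dilutions from DMSO (DMSO vehicle; paclitaxel positive control). Viability read by CellTiter-Blue absorbance; IC50 relative to vehicle by nonlinear regression; triplicate, three independent experiments.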

In the case of `CC(=O)O[C@H]1C(=O)[C@@]2(C)[C@H]([C@H](OC(=O)c3ccccc3)[C@]3(O)C[C@H](OC(=O)[C@H](O)[C@@H](NC(=O)c4ccccc4)c4ccccc4)C(C)=C1C3(C)C)[C@]1(OC(C)=O)CO[C@@H]1C[C@@H]2O` [PACLITAXEL], the IC50 is reported as 3.8 µM.
